Results: publication PMC6756068

Molecular target: BioID2-KRas4B (with an N-terminal OLLAS tag) (UniProt P01116)
Experiment: proximity labelling; OLLAS-BioID2 constructs transfected into 293 cells, biotin (down to 0.1 µM), streptavidin pulldown, western blot

binding: binds
Substance: endogenous merlin of 293 cells (from UniProt P35240 1-595)

No constants are given. Whether binding was seen depends on the method and setting. Binding seen in cells or lysates may run through a third protein. A yes stands for co-enrichment or nearness to the bait. Other partners may have been found.
